Source: PMC11437456
No constants are given. Whether binding was seen depends on the method and setting. Binding seen in cells or lysates may run through a third protein. Some binding calls cover weakened binding; strength is not graded here.

Target: EGFP-eEF1A1 (eukaryotic elongation factor 1 alpha 1) (UniProt P68104)
Experiment: co-IP

binding: binds
Substance: p62/SQSTM1 (from UniProt Q13501 1-440)
